# Reference: patent publication US20070098718A1 (Novartis, published 2007)
# Sequences of proteins named here, by UniProt entry; tags and fusion partners are left off. A change or cut given only in a name is not applied to a line headed by its entry.
# UniProt P25942: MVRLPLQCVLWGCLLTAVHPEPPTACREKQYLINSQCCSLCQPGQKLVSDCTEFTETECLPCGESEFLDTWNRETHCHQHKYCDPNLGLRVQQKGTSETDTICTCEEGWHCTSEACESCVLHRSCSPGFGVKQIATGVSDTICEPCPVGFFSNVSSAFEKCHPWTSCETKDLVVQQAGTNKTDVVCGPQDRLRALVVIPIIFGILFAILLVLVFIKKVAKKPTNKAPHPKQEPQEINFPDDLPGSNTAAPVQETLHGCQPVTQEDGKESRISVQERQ
# No constants are given. Whether binding was seen depends on the method and setting. Some binding calls cover weakened binding; strength is not graded here.
# Experiments:
# [1] = target: Purified CD40 (human) (UniProt P25942); experiment: Western blot of purified CD40, antibody at 10 µg/ml
# [2] = target: recombinant CD40 (ELISA antigen) (human) (UniProt P25942); experiment: ELISA-type assay
binding [1],binding [2],Binder
binds,binds,"monoclonal antibody CHIR-12.12 (antibody, human IgG1, kappa, V domains shown, Fully human IgG1 kappa anti-human CD40 mAb; also called antibody of hybridoma 153.8E2.D10.D6.12.12) VH: QVQLVESGGGVVQPGRSLRLSCAASGFTFSSYGMHWVRQAPGKGLEWVAVISYEESNRYHADSVKGRFTISRDNSKITLYLQMNSLRTEDTAVYYCARDGGIAAPGPDYWGQGTLVTVSS VL: DIVMTQSPLSLTVTPGEPASISCRSSQSLLYSNGYNYLDWYLQKPGQSPQVLISLGSNRASGVPDRFSGSGSGTDFTLKISRVEAEDVGVYYCMQARQTPFTFGPGTKVDIRR"
binds,binds,"monoclonal antibody CHIR-5.9 (antibody, human IgG1, kappa, V domains shown, Fully human IgG1 kappa anti-human CD40 mAb; also called mAb CHIR-5.9; antibody of hybridoma 131.2F8.5.9) VH: EVQLVQSGAEVKKPGESLKISCKGSGYSFTSYWIGWVRQMPGKGLEWMGIIYPGDSDTRYSPSFQGQVTISADKSISTAYLQWSSLKASDTAMYYCARGTAAGRDYYYYYGMDVWGQGTTVTVSS VL: AIVMTQPPLSSPVTLGQPASISCRSSQSLVHSDGNTYLNWLQQRPGQPPRLLIYKFFRRLSGVPDRFSGSGAGTDFTLKISRVEAEDVGVYYCMQVTQFPHTFGQGTRLEIKR"
